PubChem BioAssay AID602196 | INSERM | 2012
Assay: 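Genes whose knock-down alters cisplatin killing of lung cancer cells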. System: human A549 lung cancer cells. Reagent: siRNA pair against human genes. Time to read-out: 48 h transfection before cisplatin; time from cisplatin to read-out not stated. Conditions: cisplatin at a dose killing half of control-siRNA cells; exact dose and duration not given. Measured: 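Cisplatin cell death as a shift from the 50% death seen with control siRNA; siRNAs toxic or growth-blocking alone scored 0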. Reading the numbers: two-siRNA summed score (-2 to +2): higher = both siRNAs protect from cisplatin killing; -2 means both sensitise; mean protection from cisplatin (shift in death): higher = protection from cisplatin killing. Call rule: 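siRNAs harmful alone (LDH or WST-1) get 0; others get +1 for less and -1 for more cisplatin killing; genes are active when the two siRNAs give the same sign, summing to ±2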. Calls: active = both siRNAs shift cisplatin killing the same way; inactive = no consistent shift, or siRNA harmful alone.
This is an unselected part of about 23,000 reagents tested. Of all reagents, 455 (2%) were called active. 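Active includes both protection and sensitisation; some change values fall well beyond the stated -50 to +50 range.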 Unmarked entries are inactive. Not all columns of the deposit are shown. No sequences are given here. Not stated in the record: the amount of reagent.

no.	Target gene	two-siRNA summed score (-2 to +2)	mean protection from cisplatin (shift in death) (%)
1	UPK3A	0	6.6
2	TIGD3	1	7.7
3	POGLUT3	0	13.1
4	PPIL6	1	13.3
5	ITGA10	-1	-14.3
6	ZNF654	0	2.9
7	LOC139793	0	2.5
8	RANBP6	-1	-7.2
9	CCDC148	0	12.5
10	LOC441007	0	3.8
11	RGL4	-1	-7.2
12	ATP2A3	0	3.6
13	XAF1	0	-0.2
14	U2AF1	1	11.3
15	GPR142	-1	1.2
16	LCT	0	-8.7
17	DUXAP10	0	7.3
18	CAND1	0	1.6
19	ZNF347	0	10.2
20	LOC346355	0	7.4
21	RALGPS1	0	-9.6
22	LOC391701	-1	-4.6
23	LINC00304	0	-6.8
24	RAMP3	0	-2.1
25	COPS4	0	-0.3
26	LOC390570	0	15.6
27	LTB4R2	1	11.4
28	LOC388960	1	11.8
29	LOC389652	1	20.2
30	MYOCD	0	1.7
31	LOC401234	0	6.3
32	MAN2C1	0	-12.5
33	STK32B	1	1.9
34	ZNF221	1	7.1
35	H3C1	0	9
36	NNAT	0	4.8
37	SLC16A6P1	0	-0.1
38	FOXE1	0	-0.2
39	SMIM10L2A	0	13.9
40	SLC16A9	2 (active)	21.6
41	LOC441068	1	15.5
42	KANK2	0	-2.3
43	DEGS2	0	0.6
44	SCAF11	0	-2.9
45	DLGAP5	-1	-21.9
46	CD83	0	-0.1
47	COL16A1	0	11.6
48	ARL2	1	14
49	LOC401126	0	-1
50	POGZ	0	10.6
51	FAM222B	1	6
52	ANKRD13C-DT	0	-9.8
53	HEATR4	0	1.5
54	USP54	0	-4.6
55	DHRS9	-1	-10.7
56	ACTMAP	1	22.4
57	YY1	0	-9
58	DUSP10	0	1.2
59	SEMG1	1	4.3
60	SMYD2	0	10.9
61	GFI1B	0	5.5
62	AGTPBP1	0	8.7
63	LOC440358	0	5.7
64	HS2ST1	0	6.1
65	SOX12	0	-1.3
66	WDR45B	0	6.6
67	HADHA	-1	-10
68	HOMEZ	0	7.3
69	HIGD1A	0	2.9
70	PLIN4	0	4.2
71	PACS2	0	2.8
72	FRAS1	0	0.7
73	PSPH	0	4.4

8 entries from above, reformatted:
SMIM10L2A
- two-siRNA summed score (-2 to +2): 0
- mean protection from cisplatin (shift in death) (%): 13.9

SLC16A9
- two-siRNA summed score (-2 to +2): 2 (active)
- mean protection from cisplatin (shift in death) (%): 21.6

LOC441068
- two-siRNA summed score (-2 to +2): 1
- mean protection from cisplatin (shift in death) (%): 15.5

KANK2
- two-siRNA summed score (-2 to +2): 0
- mean protection from cisplatin (shift in death) (%): -2.3

DEGS2
- two-siRNA summed score (-2 to +2): 0
- mean protection from cisplatin (shift in death) (%): 0.6

SCAF11
- two-siRNA summed score (-2 to +2): 0
- mean protection from cisplatin (shift in death) (%): -2.9

DLGAP5
- two-siRNA summed score (-2 to +2): -1
- mean protection from cisplatin (shift in death) (%): -21.9

CD83
- two-siRNA summed score (-2 to +2): 0
- mean protection from cisplatin (shift in death) (%): -0.1
